Assay results taken from PubChem BioAssay AID445 (National Center for Advancing Translational Sciences (NCATS), 2006).
The other results are listed elsewhere or left out. The main result of the screen is listed elsewhere. These columns were measured beside it and carry no call. The list favours compounds with an active or inconclusive main result. Words in brackets tell the shape of the fitted curve; partial curves, single points and poor fits give uncertain potencies.

Test: IkB Signaling
Conditions: ABC-DLBCL IkBa-CBG/CBR dual luciferase ratio (green luciferase fused to IkBa over red control in OCI-Ly3 lymphoma cells), 4 h
Summary of the method: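 In this assay, an IκBα–CBG68 fusion accumulates when IKK-driven degradation is blocked; native CBR normalizes for cell number. OCI-Ly3 cells were treated 4 h with compound and doxycycline, then green and red light read after Chroma-Glo addition.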

[1] = measured here: control luc red channel unless noted

CCOC(=O)c1c(C)oc2c1c(C(c1cccnc1)N1CCN(C)CC1)c(O)c1ccccc12 (configuration not stated)
AC50 [1]: 12.6 µM [falling, partial curve]

COc1ccc(CNC(=O)COC(=O)c2n[nH]c3ccccc23)cc1OC
AC50 [1]: 25.1 µM [falling, partial curve]

Cc1ccccc1C(=O)Nc1nnc(S(=O)(=O)N(C)Cc2ccc(Cl)cc2)s1
AC50 [1]: 12.6 µM [falling, partial curve]

O=C(Cc1ccc(F)cc1)N1CCC(c2nc3c(nnn3Cc3ccc(F)cc3)c(=O)[nH]2)CC1
AC50 [1]: 15.8 µM [falling, partial curve]

Cc1ccc(O)c(N)c1
AC50 (measured here: IkB-luc green channel): 31.6 µM [rising, partial curve]
AC50 (measured here: control luc red channel): 5.01 µM [falling, partial curve]

COc1ccc(CC(=O)N2CC(=O)Nc3ccc(Br)cc3C2c2ccc(F)cc2)cc1 (configuration not stated)
AC50 [1]: 39.8 µM [falling, single point]

CCCCNc1nc(Oc2ccc(OCCC)nn2)nc(N(C)C)n1
AC50 [1]: 10 µM [falling, partial curve, poor fit]

COc1ccc(OC)c(CCNC(=O)CN2C(=O)COc3ccc(S(=O)(=O)N4CCC(C)CC4)cc32)c1
AC50 [1]: 15.8 µM [falling, partial curve]

COc1ccc(CC(=O)Nc2c(C(=O)Nc3ccc(F)cc3)oc3ccccc23)cc1OC
AC50 [1]: 15.8 µM [rising, partial curve]

COc1ccc(Cn2nnnc2CN2CCC(c3nc4ccccc4s3)CC2)cc1
AC50 [1]: 25.1 µM [falling, partial curve]

O=C(CCSCc1ccccc1F)N1CCN(c2ccc(Cl)cc2)CC1
AC50 [1]: 39.8 µM [falling, single point]

COc1cc2c(C(=O)Nc3ccc(C)cc3Br)cn(C)c(=O)c2cc1OC
AC50 [1]: 10 µM [falling, full curve]

CCCN1CCN(CCNC(=O)Nc2cc(C)ccc2OC)CC1
AC50 [1]: 10 µM [falling, partial curve]

COc1ccc(-n2c(/C=C/c3cccc4ccccc34)nc3ccccc3c2=O)cc1Cl
AC50 [1]: 20 µM [falling, partial curve, poor fit]

FC(F)(F)c1cnc2c(c1)Nc1ccccc1S2
AC50 [1]: 10 µM [falling, partial curve]

CC(C)(C)c1ccc(C(=O)NC(Cc2c[nH]c3ccccc23)C(=O)OCC(=O)c2ccccc2)cc1 (configuration not stated)
AC50 [1]: 3.98 µM [falling, partial curve]

COc1ccc(Cn2c(=O)[nH]c3cc(C(=O)N4CCN(c5cccc(OC)c5)CC4)ccc3c2=O)cc1
AC50 [1]: 0.0501 µM [falling, full curve, poor fit]

Cn1cc(C(=O)NCc2ccc(Cl)cc2)c(=O)c2cc(S(=O)(=O)N3CCCCCC3)ccc21
AC50 [1]: 6.31 µM [falling, partial curve]

CCC1CN(C(=O)N2CCC(C(=O)NCCC3=CCCCC3)CC2)c2cc(C)ccc2O1 (configuration not stated)
AC50 [1]: 15.8 µM [falling, partial curve]

C[C@@H]1C(=O)O[C@H]2[C@@H](O)[C@@]34[C@H]5C[C@H](C(C)(C)C)[C@@]36[C@H](OC(=O)[C@@H]6O)O[C@@]4(C(=O)O5)[C@@]12O
AC50 [1]: 0.316 µM [rising, single point]

CCn1cc2nc(SCc3ccc(C)cc3)n(CCc3ccccc3)c(=O)c2n1
AC50 [1]: 31.6 µM [falling, partial curve]

Cc1ccc(OCC(=O)Nc2ccc(Cl)c(-c3nc4ccccc4[nH]3)c2)cc1C
AC50 [1]: 10 µM [falling, partial curve]

C(=N\n1cnnc1)/c1cccc(OCCOc2ccccc2)c1
AC50 [1]: 12.6 µM [falling, partial curve]

COc1ccc(C)cc1NC(=O)C(=O)NCC1(c2ccccc2)CCCC1
AC50 [1]: 39.8 µM [falling, single point]

CC(C)(C)c1ccc(C2NC(=O)c3n[nH]c(-c4cccs4)c32)cc1 (configuration not stated)
AC50 [1]: 31.6 µM [falling, single point]

Cc1ccc(NC(=O)Cn2c(CCC(=O)O)ccc2-c2ccc(Cl)cc2)cc1
AC50 [1]: 25.1 µM [falling, single point]

Cc1ccc(Cn2cc(CCC(=O)NCc3ccccc3F)c3ccccc32)cc1
AC50 [1]: 0.158 µM [falling, partial curve]

O=C(Nc1ccccc1)N1CCN2C(=O)c3ccccc3C12c1ccccc1 (configuration not stated)
AC50 [1]: 20 µM [falling, partial curve]

Cn1c(=O)n(Cc2ccccc2)c(=O)c2c1nc1n2CCCN1Cc1ccccc1
AC50 [1]: 7.94 µM [falling, partial curve]

Cc1cc(C)c2c(n1)SCCN2C(=O)Nc1ccc(C(=O)Nc2cc(Cl)ccc2C)cc1
AC50 [1]: 12.6 µM [falling, partial curve, poor fit]

CCC1(c2cccc(Cl)c2)NC(=O)N(Cc2cc(C(=O)OC)c(C)o2)C1=O (configuration not stated)
AC50 [1]: 15.8 µM [falling, partial curve]

Cc1ccnc(NC(=O)CCC2COc3ccccc3O2)c1 (configuration not stated)
AC50 [1]: 15.8 µM [falling, partial curve]

Cc1cc(C(=O)NCCc2ccc(Cl)cc2)c2c(C)nn(-c3cccc(F)c3)c2n1
AC50 [1]: 39.8 µM [falling, single point]

O=C(C1CCCN(S(=O)(=O)c2cccc3cccnc23)C1)N1CCc2ccccc21 (configuration not stated)
AC50 [1]: 15.8 µM [falling, partial curve]

COc1ccc(N(CC(=O)NCCc2cccc(C)c2)S(=O)(=O)c2c(C)noc2C)cc1
AC50 [1]: 15.8 µM [falling, single point]

CC(C)Oc1ccc(CNC(=O)CCn2c(=O)c3cccn3c3ccc(F)cc32)cc1
AC50 [1]: 25.1 µM [falling, partial curve]

O=C(Nc1ccc2c(c1)N(C1CCCC1)C(=O)c1ccccc1S2)c1cccc(F)c1
AC50 [1]: 39.8 µM [falling, single point]

COc1cccc(-n2c(=O)c3c(C)c(C(=O)N(C)C)sc3n(CC(=O)Nc3ccc(C)cc3Cl)c2=O)c1
AC50 [1]: 1.26 µM [rising, full curve]

Cc1c(C)n(Cc2ccccc2)c2ccc(C(=O)NCCc3ccccc3Cl)cc12
AC50 [1]: 1.58 µM [rising, full curve]

O=C(NCCc1csc(-c2cccc(F)c2)n1)c1ccc(Br)o1
AC50 [1]: 15.8 µM [falling, partial curve]

O=C1CC(c2nc(-c3cccc(Cl)c3)no2)CN1c1ccc2c(c1)OCCO2 (configuration not stated)
AC50 [1]: 15.8 µM [falling, partial curve]

COc1ccc2[nH]c(=O)c(CN(Cc3ccccc3)Cc3nnnn3CC3CCCO3)cc2c1 (configuration not stated)
AC50 [1]: 12.6 µM [falling, partial curve]

Cc1n[nH]c(C)c1S(=O)(=O)N(CC(=O)NCc1ccccc1Cl)c1ccc(C(C)C)cc1
AC50 [1]: 25.1 µM [falling, partial curve]

CCOc1ccccc1CNC(=O)CCc1cn(Cc2ccc(Cl)cc2)c2ccccc12
AC50 [1]: 12.6 µM [falling, partial curve]

CCN(C(=O)Cn1c(=O)oc2cc(S(=O)(=O)N3CCCC3)ccc21)c1cccc(C)c1
AC50 [1]: 31.6 µM [falling, single point]

CCCCN(C)C(=O)C1CCC(CNS(=O)(=O)c2ccc3c(c2)CC(C)N3C(C)=O)CC1 (configuration not stated)
AC50 [1]: 15.8 µM [falling, single point]

Cn1c(=O)[nH]c(=O)c2c1nc(N1CCN(Cc3ccccc3)CC1)n2CCCc1ccccc1
AC50 [1]: 39.8 µM [falling, single point]

CCN(CC)C(=O)Cn1c(SCCOc2ccc(Cl)cc2)nc2ccccc21
AC50 [1]: 39.8 µM [falling, single point]

COc1ccc(OC)c(S(=O)(=O)Nc2cc3c(C(C)=O)c(C)oc3c3ccccc23)c1
AC50 [1]: 25.1 µM [falling, single point]

COc1ccc(-c2nnc(SCC(=O)Nc3ccc(C(C)=O)cc3)nc2-c2ccc(OC)cc2)cc1
AC50 [1]: 25.1 µM [falling, single point]

N=C1C(c2ccc(Br)cc2)=C(O)C2CCc3ccccc3N12 (configuration not stated)
AC50 [1]: 5.01 µM [falling, partial curve]

Cc1ccc(S(=O)(=O)NCC2CCC(C(=O)N(C)Cc3ccccc3)CC2)cc1 (configuration not stated)
AC50 [1]: 25.1 µM [falling, partial curve]

CC(Oc1ccc(F)cc1)C(=O)Nc1cc(-c2ccc(F)c(F)c2)no1 (configuration not stated)
AC50 [1]: 2 µM [rising, full curve]

CCOc1ccc(CCNC(=O)c2c(C)oc3ncnc(N4CCOCC4)c23)cc1
AC50 [1]: 0.158 µM [falling, full curve, poor fit]

Cc1ccc(NC(=O)CN2C(=O)COc3ccc(S(=O)(=O)N4CCCCCC4)cc32)cc1C
AC50 [1]: 20 µM [falling, single point]

COCCCNC(=O)CSc1nc2ccccc2c(=O)n1Cc1ccco1
AC50 [1]: 6.31 µM [rising, single point]

CCOc1cccc(CNc2ccc(O)cc2)c1OCc1ccccc1Cl
AC50 [1]: 31.6 µM [falling, partial curve]

COc1ccc(CNC(=O)c2ccc3[nH]c(C)c(C)c3c2)c(OC)c1
AC50 [1]: 12.6 µM [falling, single point]

CCc1nnc2c(NCCc3ccc(OC)c(OC)c3)nc3ccccc3n12
AC50 [1]: 39.8 µM [falling, single point]

COc1ccc(-c2onc(C)c2C)cc1S(=O)(=O)NCc1ccc(Br)cc1
AC50 [1]: 2.51 µM [falling, partial curve]

COc1cc(-c2ccc(N=Nc3ccc4c(S(=O)(=O)O)cc(S(=O)(=O)O)c(N)c4c3O)c(OC)c2)ccc1N=Nc1ccc2c(S(=O)(=O)O)cc(S(=O)(=O)O)c(N)c2c1O
AC50 [1]: 39.8 µM [falling, single point]
